Laboratory results from patent US20220288277A1, “SURFACE COATINGS AND IMPLANTABLE DEVICES COMPRISING DIMERIC STEROID PRODRUGS, AND USES THEREOF” (Ripple Therapeutics Corporation, priority 2019, published 2022).

In the case of C[C@@H]1C[C@H]2[C@@H]3CCC4=CC(=O)C=C[C@]4(C)[C@@]3(F)[C@@H](O)C[C@]2(C)[C@@]1(O)C(=O)COC(=O)OCCOCCOCCOC(=O)OCC(=O)[C@@]1(O)[C@H](C)C[C@H]2[C@@H]3CCC4=CC(=O)C=C[C@]4(C)[C@@]3(F)[C@@H](O)C[C@@]21C [Compound 1, dexamethasone-triethylene glycol-dexamethasone], the Drug load (heat press process, 185° C. pre-melt, 1500 PSI for 30 seconds) is reported as 37.1±8.1 μg/mm^2, the “Range of drug loadings” value (heat press, 150 C-180 C, 700-3000 PSI, 30 s-10 min) is reported as 4-37 ag/mm^2 and the Drug loading (spray coating from acetone, substrate surface area 3-6 mm^2) is reported as “up to 120 μg”. The Drug load (spray-coating and drying, 50 mg/mL solution and 80 sprays) was 7.8±1.2 μg/mm^2.

Read-outs that look alike come from different tables or passages of the source.
